This is one part of the list.

Amino acid sequences for entries named in this document (tags omitted).
UniProt Q0JBA9, entry or part of it: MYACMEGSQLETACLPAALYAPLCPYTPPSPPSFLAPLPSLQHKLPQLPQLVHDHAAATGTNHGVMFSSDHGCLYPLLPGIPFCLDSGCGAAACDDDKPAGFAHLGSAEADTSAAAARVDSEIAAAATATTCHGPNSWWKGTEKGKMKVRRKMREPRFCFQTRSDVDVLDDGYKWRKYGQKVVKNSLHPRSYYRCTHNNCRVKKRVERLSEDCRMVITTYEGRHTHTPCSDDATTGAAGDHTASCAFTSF

For this experiment, the target named is OsWRKY34 (Oryza sativa, UniProt Q0JBA9 1-250). The experiment can be described thus: protein-binding microarray (RPBM); PBS, 2% BSA, 51.3 ng/ul salmon testes DNA, 50 uM zinc acetate, 200 nM TF, 25 C, 1 h; high values mean tight binding. To be noted: protein: recombinant; tags: N-terminal polyhistidine and DsRed monomer fusion (pET32a); label: CyDye5-dUTP incorporated in the synthesized complementary strand; 3' TTTTT single-stranded linker to array surface; dsDNA, one strand shown. In outline: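 In PBS with 2% BSA, salmon testes DNA and 50 µM zinc acetate, 200 nM protein was incubated on a custom Agilent array at 25 °C for 1 h and then washed off. The array had been made double-stranded by primer extension with Cy5-dUTP and blocked with 2% BSA. The proteins were transcription factors fused N-terminally to polyhistidine and DsRed, expressed in E. coli BL21-CodonPlus and purified on Ni–NTA. The binding signal is per-feature fluorescence intensity (arbitrary units) from an Axon 4000B scanner.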
With “TCTAACGTATGAGTAGTGTATAATTTCGGGGAGGAAAAGACGGAGTCACCTAGTGCAG”, the binding signal was 10500 fluorescence intensity (a.u.).
Under “ACATTAGTTTTTGCGCTCAAATTTGAATTTCTATTACTATCGGAGTCACCTAGTGCAG” stands 9310 fluorescence intensity (a.u.).
Consider “TTTCATCCGATATGGCTCGTTGACTTGATCCACTTAGCTGCGGAGTCACCTAGTGCAG”, for which the binding signal was 11200 fluorescence intensity (a.u.).
Turning to “GTCTGCTGATTGTATTATGTTCTTTTAGGTAGTTAATTCGCGGAGTCACCTAGTGCAG”, the binding signal is 8200 fluorescence intensity (a.u.).
Turning to “TGCCGCTCGCATCTCCACTCCCAACTTCGGATCAACTACACGGAGTCACCTAGTGCAG”, the binding signal is 9560 fluorescence intensity (a.u.).
Consider “GCCGATGACGATTCCATCCCCGCGGATCTAAGCTTGCCGCCGGAGTCACCTAGTGCAG”, for which the binding signal was 8080 fluorescence intensity (a.u.).
In the case of “ACCATCTAGCTCACTCACACAGTCTCCACTCACACGCATTCGGAGTCACCTAGTGCAG”, the binding signal is 8840 fluorescence intensity (a.u.).
Regarding “GGTCCTCCAACTTGTTCAGTTGTGTCACCTCGGTCCCTAACGGAGTCACCTAGTGCAG”, the binding signal was 8960 fluorescence intensity (a.u.).
As to “TTCTTTTCGTTCTCGTGGCTGTCATTCTCCGACGTGCTCACGGAGTCACCTAGTGCAG”, the binding signal is 10200 fluorescence intensity (a.u.).
Under “ATAATACCTCATATCACTCTGCTGTCCAGTCTACTCCCTTCGGAGTCACCTAGTGCAG” stands 8240 fluorescence intensity (a.u.); under “TCAGCATTGTTCTTGTATTCCCCACTTCCTGAAGTTCTTACGGAGTCACCTAGTGCAG”, 8090 fluorescence intensity (a.u.).
Take “AAAACTGGGTTTTACAACTTTTGATTTCTAGTTTATTTTTCGGAGTCACCTAGTGCAG”: the binding signal is 8160 fluorescence intensity (a.u.).
Turning to “ACGTGTCAAACCCCAAATCCCAGGCCGGTTTACTCGTTTTCGGAGTCACCTAGTGCAG”, the binding signal was 8140 fluorescence intensity (a.u.).
Take “TCTAATTTCTACACTGTCCTTTAGACTATTCAGTATACATCGGAGTCACCTAGTGCAG”: the binding signal is 10300 fluorescence intensity (a.u.).
For the sequence “ATCCGTTTTTGCGTTCAGGGATGAATTTCGGACTCGGCGACGGAGTCACCTAGTGCAG”, the binding signal is 8220 fluorescence intensity (a.u.).
Take “GCCGAGCCCCATCTTCTGCTGCGACCCCGTAGCGCTCAACCGGAGTCACCTAGTGCAG”: the binding signal was 9240 fluorescence intensity (a.u.).
With “TCCACATTCTTCATTCTCCATTAATTTCACGGTTTCATCTCGGAGTCACCTAGTGCAG”, the binding signal was 9980 fluorescence intensity (a.u.).
As for “GAGGCGGGTGGGCGAGCTCCGGCGGCGGCGGGGTGGCCTTCGGAGTCACCTAGTGCAG”, the binding signal is 15800 fluorescence intensity (a.u.).
As to “TCCACGTTGACCACATCGCGTCACACCGTCCACGACTTTTCGGAGTCACCTAGTGCAG”, the binding signal is 12700 fluorescence intensity (a.u.).
“TCATGTTCATCTTGGCCAACAATTTCTTACTTTCTTTCTCCGGAGTCACCTAGTGCAG”: the binding signal was 8930 fluorescence intensity (a.u.).
Consider “GATTGCTTTTATCTTGTTCTTGCTTGTTTCTTCGATTTGCCGGAGTCACCTAGTGCAG”, for which the binding signal is 8790 fluorescence intensity (a.u.).
On to “GCGCTGATCTCGTCGTCTTCCTTGCATTGGCGCCGCTCAACGGAGTCACCTAGTGCAG”, for which the binding signal is 10900 fluorescence intensity (a.u.).
In the case of “ACTTTTGCCATCGTGGACACACTATCACCAGGCTCCAGCTCGGAGTCACCTAGTGCAG”, the binding signal is 8520 fluorescence intensity (a.u.).
Consider “TTAAAGTTCAGTTGACGTCCTACATTTTGCTTTACCGCTGCGGAGTCACCTAGTGCAG”, for which the binding signal was 9500 fluorescence intensity (a.u.).
For “CCGTTACGCGATCATCTCATCTCGCCGAGTCATCAGCCGCCGGAGTCACCTAGTGCAG”, the binding signal is 8370 fluorescence intensity (a.u.).
Consider “ACGCCGGTTGTTCGTTGCTCCCTGCGTTTATAAATCCGATCGGAGTCACCTAGTGCAG”, for which the binding signal is 9820 fluorescence intensity (a.u.).
As to “TTCATATCATATAAAATCTATTGTTTTTGCCTACAACTTTCGGAGTCACCTAGTGCAG”, the binding signal is 8120 fluorescence intensity (a.u.).
With “TTTATAGTCCCGGTTGGTATTATATTGAATGTTTGGACATCGGAGTCACCTAGTGCAG”, the binding signal is 8200 fluorescence intensity (a.u.).
In the case of “AACATCACCGCAGCGCCATGCCACCACACGTCCGGAAAGTCGGAGTCACCTAGTGCAG”, the binding signal is 11000 fluorescence intensity (a.u.).
Take “CCTATACTGATATACTACTACTACACTTATCCGGTTTTAACGGAGTCACCTAGTGCAG”: the binding signal was 9060 fluorescence intensity (a.u.).
Consider “CTTCTGCTTATACTGAGCTTGTTGTTCTTGTTGTTTGTCGCGGAGTCACCTAGTGCAG”, for which the binding signal was 10600 fluorescence intensity (a.u.).
The value for “AACACCATGCCTACGCGATTCAGATCAATTTTACAGTTTTCGGAGTCACCTAGTGCAG” was 9730 fluorescence intensity (a.u.); that for “CCATTTTTTTTAGCTGACATGTGGGACCCATCATTTTTAACGGAGTCACCTAGTGCAG” was 9560 fluorescence intensity (a.u.).
On to “TACTACCTCTTTGTTTCTCTCTCTATATATACCTATCCAACGGAGTCACCTAGTGCAG”, for which the binding signal is 8330 fluorescence intensity (a.u.).
Regarding “ATTGTTGGGCTGCTTTATTTTATGGGCTGAATTCTTTCACCGGAGTCACCTAGTGCAG”, the binding signal is 10600 fluorescence intensity (a.u.).
Consider “ACCCTGCACCTCCTTCCTCGTCGACGCCATGGCAGCACCGCGGAGTCACCTAGTGCAG”, for which the binding signal is 9800 fluorescence intensity (a.u.).
The value for “TTCTTTTCGCTAGTGATGTCTAGCGTTTCTTTTGACAAATCGGAGTCACCTAGTGCAG” was 8560 fluorescence intensity (a.u.); that for “CTAGCTAACCACCCGTCACCCGATATCAACGCTAGGCCTTCGGAGTCACCTAGTGCAG” was 9300 fluorescence intensity (a.u.).
With “CCAACAACACCAGCTTCCGCTTCGAGTTCGTCGCCAACCGCGGAGTCACCTAGTGCAG”, the binding signal was 10000 fluorescence intensity (a.u.).
As to “GAATGTTTACTTTGTTGCCGTTGCATGATCCCCTCCGCTCCGGAGTCACCTAGTGCAG”, the binding signal is 8430 fluorescence intensity (a.u.).
As to “TCGGCGTTCTGTTCTGTTCTGCTTCTGCGCGCAGTGTATACGGAGTCACCTAGTGCAG”, the binding signal was 9870 fluorescence intensity (a.u.).
Under “AGACCATTTCAGGAACGCAACGATTTTTAACTTTCTCTTGCGGAGTCACCTAGTGCAG” stands 9610 fluorescence intensity (a.u.).
